{
  "sequences": {"note": "Chains of the proteins cited; added tags and fusions are not shown. Lines headed by an entry give the natural chain unless they say otherwise; changes in a name come on top.", "UniProt Q7L5N1, whole entry": "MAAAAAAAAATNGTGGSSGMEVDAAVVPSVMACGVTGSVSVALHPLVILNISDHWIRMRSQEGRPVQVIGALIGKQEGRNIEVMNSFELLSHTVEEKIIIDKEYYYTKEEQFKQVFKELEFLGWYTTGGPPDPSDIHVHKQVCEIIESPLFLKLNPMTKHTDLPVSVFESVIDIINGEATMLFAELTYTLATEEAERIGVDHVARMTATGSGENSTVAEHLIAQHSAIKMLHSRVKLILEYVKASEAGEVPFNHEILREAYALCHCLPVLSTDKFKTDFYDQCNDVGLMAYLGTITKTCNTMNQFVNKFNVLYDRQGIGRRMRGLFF", "UniProt Q92905, whole entry": "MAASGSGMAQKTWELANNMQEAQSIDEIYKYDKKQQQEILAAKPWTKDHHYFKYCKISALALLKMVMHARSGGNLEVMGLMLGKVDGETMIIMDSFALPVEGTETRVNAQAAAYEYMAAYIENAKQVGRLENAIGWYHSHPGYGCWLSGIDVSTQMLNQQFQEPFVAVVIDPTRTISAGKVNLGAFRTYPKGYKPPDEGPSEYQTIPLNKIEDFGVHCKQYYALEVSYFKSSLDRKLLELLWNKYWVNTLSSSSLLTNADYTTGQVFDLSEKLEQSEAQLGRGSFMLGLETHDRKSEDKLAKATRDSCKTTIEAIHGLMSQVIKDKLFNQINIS", "UniProt O14576, whole entry": "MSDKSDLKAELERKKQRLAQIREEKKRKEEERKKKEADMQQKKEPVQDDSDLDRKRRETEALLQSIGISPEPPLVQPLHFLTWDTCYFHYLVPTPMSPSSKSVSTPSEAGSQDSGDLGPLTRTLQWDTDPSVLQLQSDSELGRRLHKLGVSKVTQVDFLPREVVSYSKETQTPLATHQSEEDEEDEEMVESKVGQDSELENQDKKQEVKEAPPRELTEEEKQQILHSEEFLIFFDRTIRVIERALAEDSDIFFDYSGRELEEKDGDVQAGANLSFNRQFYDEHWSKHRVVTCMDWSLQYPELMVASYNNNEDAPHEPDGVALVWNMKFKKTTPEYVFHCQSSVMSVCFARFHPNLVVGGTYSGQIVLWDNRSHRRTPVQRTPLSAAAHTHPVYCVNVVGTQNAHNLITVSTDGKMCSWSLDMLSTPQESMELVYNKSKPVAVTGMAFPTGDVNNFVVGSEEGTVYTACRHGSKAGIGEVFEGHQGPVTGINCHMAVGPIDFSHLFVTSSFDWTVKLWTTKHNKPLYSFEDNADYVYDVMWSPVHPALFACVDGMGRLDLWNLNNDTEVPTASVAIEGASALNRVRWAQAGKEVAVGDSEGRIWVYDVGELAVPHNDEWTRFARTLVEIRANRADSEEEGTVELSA", "UniProt Q13098, whole entry": "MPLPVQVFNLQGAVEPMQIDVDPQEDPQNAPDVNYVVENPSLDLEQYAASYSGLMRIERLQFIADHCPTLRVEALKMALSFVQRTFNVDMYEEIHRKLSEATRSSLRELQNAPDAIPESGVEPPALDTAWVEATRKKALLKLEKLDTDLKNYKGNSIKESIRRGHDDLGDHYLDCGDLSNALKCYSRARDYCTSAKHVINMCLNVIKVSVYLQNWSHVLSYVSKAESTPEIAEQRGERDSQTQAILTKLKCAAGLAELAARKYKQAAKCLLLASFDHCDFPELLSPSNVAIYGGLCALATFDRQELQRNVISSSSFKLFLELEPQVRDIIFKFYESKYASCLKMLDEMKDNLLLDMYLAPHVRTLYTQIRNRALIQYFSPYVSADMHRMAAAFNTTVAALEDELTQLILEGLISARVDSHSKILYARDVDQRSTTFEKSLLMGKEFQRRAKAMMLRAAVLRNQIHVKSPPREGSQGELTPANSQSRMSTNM", "UniProt O43237, whole entry": "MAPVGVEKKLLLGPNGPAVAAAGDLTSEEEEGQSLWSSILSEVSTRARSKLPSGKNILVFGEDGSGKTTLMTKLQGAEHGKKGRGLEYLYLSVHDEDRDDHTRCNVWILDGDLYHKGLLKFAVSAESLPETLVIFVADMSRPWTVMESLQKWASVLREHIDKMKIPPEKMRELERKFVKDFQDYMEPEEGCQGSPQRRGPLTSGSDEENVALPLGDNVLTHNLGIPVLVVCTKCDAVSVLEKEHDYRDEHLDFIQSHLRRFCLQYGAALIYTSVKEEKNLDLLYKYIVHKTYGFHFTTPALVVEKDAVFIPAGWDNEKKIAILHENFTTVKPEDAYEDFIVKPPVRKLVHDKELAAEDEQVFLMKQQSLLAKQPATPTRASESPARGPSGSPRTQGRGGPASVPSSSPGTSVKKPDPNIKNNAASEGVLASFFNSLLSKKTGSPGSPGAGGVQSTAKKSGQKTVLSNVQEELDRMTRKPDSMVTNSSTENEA", "UniProt P61201, whole entry": "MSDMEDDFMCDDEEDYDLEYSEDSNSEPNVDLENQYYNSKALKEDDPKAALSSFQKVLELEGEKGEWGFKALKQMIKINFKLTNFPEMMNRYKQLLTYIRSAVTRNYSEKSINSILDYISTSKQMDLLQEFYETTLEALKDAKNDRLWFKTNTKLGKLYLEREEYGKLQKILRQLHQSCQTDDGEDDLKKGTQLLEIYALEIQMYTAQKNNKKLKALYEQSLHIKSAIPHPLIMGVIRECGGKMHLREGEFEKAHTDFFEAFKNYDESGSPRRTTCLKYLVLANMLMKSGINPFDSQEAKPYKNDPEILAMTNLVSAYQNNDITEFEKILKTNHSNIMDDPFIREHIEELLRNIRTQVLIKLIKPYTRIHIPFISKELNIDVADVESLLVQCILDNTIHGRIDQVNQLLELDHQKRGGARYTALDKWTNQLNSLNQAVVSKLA", "UniProt Q9UNS2, whole entry": "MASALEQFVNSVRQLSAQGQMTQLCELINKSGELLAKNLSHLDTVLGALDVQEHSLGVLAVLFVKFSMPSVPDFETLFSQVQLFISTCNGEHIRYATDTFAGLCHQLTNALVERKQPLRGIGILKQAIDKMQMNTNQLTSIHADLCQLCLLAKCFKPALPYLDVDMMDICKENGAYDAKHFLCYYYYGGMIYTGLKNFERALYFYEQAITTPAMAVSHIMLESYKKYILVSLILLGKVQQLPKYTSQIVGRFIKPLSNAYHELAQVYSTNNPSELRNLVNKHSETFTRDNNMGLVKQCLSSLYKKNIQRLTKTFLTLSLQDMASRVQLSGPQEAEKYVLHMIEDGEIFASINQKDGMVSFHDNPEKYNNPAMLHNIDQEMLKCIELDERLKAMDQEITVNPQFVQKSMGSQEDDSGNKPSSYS", "UniProt Q99627, whole entry": "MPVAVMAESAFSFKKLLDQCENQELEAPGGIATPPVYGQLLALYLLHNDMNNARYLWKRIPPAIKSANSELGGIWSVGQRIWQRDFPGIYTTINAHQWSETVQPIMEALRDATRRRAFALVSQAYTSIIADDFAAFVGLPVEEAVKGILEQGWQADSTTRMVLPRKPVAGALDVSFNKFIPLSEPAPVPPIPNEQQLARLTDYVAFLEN", "UniProt O14744, whole entry": "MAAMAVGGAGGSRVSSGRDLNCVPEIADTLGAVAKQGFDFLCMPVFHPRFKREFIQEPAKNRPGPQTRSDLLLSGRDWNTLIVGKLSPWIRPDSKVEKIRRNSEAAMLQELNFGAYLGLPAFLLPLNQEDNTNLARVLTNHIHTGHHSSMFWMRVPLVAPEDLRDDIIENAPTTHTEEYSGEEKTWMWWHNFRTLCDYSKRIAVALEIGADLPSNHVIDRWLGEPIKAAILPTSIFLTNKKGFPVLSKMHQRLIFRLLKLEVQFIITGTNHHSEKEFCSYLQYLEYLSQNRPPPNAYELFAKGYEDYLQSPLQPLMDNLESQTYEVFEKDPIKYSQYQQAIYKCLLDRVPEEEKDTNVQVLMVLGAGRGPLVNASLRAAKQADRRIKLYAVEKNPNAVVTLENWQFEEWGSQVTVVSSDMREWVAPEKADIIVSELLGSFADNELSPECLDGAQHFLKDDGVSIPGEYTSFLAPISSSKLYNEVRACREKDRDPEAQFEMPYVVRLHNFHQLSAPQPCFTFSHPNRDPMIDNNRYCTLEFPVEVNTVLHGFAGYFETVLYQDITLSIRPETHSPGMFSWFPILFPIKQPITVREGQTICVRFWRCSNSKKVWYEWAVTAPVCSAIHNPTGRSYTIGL", "UniProt Q8TD16, whole entry": "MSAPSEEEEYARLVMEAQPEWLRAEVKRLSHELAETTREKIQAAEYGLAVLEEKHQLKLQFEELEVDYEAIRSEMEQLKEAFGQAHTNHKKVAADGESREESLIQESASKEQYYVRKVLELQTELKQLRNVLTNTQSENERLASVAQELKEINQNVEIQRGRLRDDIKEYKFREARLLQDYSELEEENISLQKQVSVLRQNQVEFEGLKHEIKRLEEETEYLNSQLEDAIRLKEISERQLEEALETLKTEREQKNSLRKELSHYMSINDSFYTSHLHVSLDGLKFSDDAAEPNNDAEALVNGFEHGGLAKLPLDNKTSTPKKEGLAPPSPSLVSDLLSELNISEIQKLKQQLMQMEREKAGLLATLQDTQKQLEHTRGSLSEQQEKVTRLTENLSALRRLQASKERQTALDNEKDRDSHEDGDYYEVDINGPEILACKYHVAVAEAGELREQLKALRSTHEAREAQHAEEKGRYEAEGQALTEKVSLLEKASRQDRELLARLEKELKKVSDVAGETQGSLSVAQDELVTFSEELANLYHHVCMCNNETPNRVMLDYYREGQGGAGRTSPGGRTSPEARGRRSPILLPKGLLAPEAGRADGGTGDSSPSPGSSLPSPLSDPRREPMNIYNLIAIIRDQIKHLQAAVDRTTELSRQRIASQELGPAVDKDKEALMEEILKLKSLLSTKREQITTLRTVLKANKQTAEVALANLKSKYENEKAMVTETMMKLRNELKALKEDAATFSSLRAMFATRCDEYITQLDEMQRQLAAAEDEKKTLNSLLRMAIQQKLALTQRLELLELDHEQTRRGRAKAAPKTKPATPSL"},
  "source": "paper doi:10.1101/2025.04.08.647777",
  "about": "(bioRxiv, 2025)",
  "molecules": {"B1": {"name": "Lis1, bacterially purified recombinant (protein, UniProt P43034 1-410)", "chain": "MVLSQRQRDELNRAIADYLRSNGYEEAYSVFKKEAELDVNEELDKKYAGLLEKKWTSVIRLQKKVMELESKLNEAKEEFTSGGPLGQKRDPKEWIPRPPEKYALSGHRSPVTRVIFHPVFSVMVSASEDATIKVWDYETGDFERTLKGHTDSVQDISFDHSGKLLASCSADMTIKLWDFQGFECIRTMHGHDHNVSSVAIMPNGDHIVSASRDKTIKMWEVQTGYCVKTFTGHREWVRMVRPNQDGTLIASCSNDQTVRVWVVATKECKAELREHEHVVECISWAPESSYSSISEATGSETKKSGKPGPFLLSGSRDKTIKMWDVSTGMCLMTLVGHDNWVRGVLFHSGGKFILSCADDKTLRVWDYKNKRCMKTLNAHEHFVTSLDFHKTAPYVVTGSVDQTVKVWECR"}, "B2": {"name": "Lis1 (endogenous) (protein, UniProt P43034 1-410)", "chain": "MVLSQRQRDELNRAIADYLRSNGYEEAYSVFKKEAELDVNEELDKKYAGLLEKKWTSVIRLQKKVMELESKLNEAKEEFTSGGPLGQKRDPKEWIPRPPEKYALSGHRSPVTRVIFHPVFSVMVSASEDATIKVWDYETGDFERTLKGHTDSVQDISFDHSGKLLASCSADMTIKLWDFQGFECIRTMHGHDHNVSSVAIMPNGDHIVSASRDKTIKMWEVQTGYCVKTFTGHREWVRMVRPNQDGTLIASCSNDQTVRVWVVATKECKAELREHEHVVECISWAPESSYSSISEATGSETKKSGKPGPFLLSGSRDKTIKMWDVSTGMCLMTLVGHDNWVRGVLFHSGGKFILSCADDKTLRVWDYKNKRCMKTLNAHEHFVTSLDFHKTAPYVVTGSVDQTVKVWECR"}},
  "key": {"GST-CSN6": {"target": "GST-CSN6 (UniProt Q7L5N1)", "experiment": "pull-down"}, "GST-CSN5": {"target": "GST-CSN5 (UniProt Q92905)", "experiment": "pull-down"}, "SFB-DIC1 WT": {"target": "SFB-DIC1 WT (UniProt O14576)", "experiment": "pull-down"}, "SFB-Lis1 D317H": {"target": "T1, SFB-Lis1 D317H (UniProt P43034)", "T1 sequence": "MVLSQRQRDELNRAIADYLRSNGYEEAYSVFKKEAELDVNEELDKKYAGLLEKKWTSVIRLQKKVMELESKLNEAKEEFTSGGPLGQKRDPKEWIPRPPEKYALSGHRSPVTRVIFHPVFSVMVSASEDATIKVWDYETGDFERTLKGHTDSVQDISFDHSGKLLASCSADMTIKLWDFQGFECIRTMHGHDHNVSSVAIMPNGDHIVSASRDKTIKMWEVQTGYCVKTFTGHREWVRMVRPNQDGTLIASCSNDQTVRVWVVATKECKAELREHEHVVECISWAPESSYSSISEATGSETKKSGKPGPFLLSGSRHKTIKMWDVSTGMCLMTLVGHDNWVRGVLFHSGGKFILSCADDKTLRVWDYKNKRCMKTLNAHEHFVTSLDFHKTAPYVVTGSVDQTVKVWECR", "experiment": "pull-down"}, "SFB-CSN1": {"target": "SFB-CSN1 (UniProt Q13098)", "experiment": "pull-down"}, "SFB-Lis1 WT": {"target": "T2, SFB-Lis1 WT (UniProt P43034)", "T2 sequence": "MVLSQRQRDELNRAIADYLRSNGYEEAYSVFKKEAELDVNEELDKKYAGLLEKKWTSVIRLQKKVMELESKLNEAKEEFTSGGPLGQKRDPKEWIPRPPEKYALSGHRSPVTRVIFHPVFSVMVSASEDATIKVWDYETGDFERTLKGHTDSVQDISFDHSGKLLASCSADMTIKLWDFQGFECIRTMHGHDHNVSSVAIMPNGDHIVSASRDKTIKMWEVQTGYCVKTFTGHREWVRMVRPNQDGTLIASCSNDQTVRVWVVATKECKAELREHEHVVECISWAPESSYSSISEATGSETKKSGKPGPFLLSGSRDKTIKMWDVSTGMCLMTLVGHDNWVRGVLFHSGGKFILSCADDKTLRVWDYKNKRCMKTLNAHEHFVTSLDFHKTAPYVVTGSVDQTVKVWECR", "experiment": "pull-down"}, "SFB-Lis1 S169P": {"target": "T3, SFB-Lis1 S169P (UniProt P43034)", "T3 sequence": "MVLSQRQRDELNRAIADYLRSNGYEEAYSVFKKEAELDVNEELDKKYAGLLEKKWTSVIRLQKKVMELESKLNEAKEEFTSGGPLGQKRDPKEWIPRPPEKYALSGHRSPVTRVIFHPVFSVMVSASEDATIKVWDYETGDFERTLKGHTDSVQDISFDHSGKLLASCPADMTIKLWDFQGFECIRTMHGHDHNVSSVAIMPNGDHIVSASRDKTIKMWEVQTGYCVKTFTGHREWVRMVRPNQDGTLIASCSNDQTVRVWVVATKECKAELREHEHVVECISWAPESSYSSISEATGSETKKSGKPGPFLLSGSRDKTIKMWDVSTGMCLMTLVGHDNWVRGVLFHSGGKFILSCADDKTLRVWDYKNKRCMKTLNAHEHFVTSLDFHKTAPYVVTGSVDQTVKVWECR", "experiment": "pull-down"}, "[1]": {"target": "dynein heavy chain (DHC), endogenous (human (endogenous in HEK293T)) (UniProt Q14204)", "experiment": "co-IP"}, "SFB-LIC2": {"target": "SFB-LIC2 (UniProt O43237)", "experiment": "pull-down"}, "GST-CSN2": {"target": "GST-CSN2 (UniProt P61201)", "experiment": "pull-down"}, "GST-CSN7A": {"target": "T4, GST-CSN7A (UniProt Q9UBW8)", "T4 sequence": "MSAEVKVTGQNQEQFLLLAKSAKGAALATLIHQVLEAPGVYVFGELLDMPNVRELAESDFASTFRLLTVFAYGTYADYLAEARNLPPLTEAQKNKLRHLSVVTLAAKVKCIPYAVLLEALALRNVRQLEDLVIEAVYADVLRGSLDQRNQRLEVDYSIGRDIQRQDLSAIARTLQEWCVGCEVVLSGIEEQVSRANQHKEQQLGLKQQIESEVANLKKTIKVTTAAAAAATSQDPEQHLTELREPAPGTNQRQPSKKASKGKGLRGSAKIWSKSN", "experiment": "pull-down"}, "GST-CSN3": {"target": "GST-CSN3 (UniProt Q9UNS2)", "experiment": "pull-down"}, "[2]": {"target": "CSN1, bacterially purified recombinant (GST-CSN subunit) (UniProt Q13098)", "experiment": "pull-down"}, "GST-CSN8": {"target": "GST-CSN8 (UniProt Q99627)", "experiment": "pull-down"}, "GST-CSN4": {"target": "GST-CSN4 (UniProt Q9BT78)", "experiment": "pull-down"}, "[3]": {"target": "PRMT5 (endogenous) (human (endogenous in HEK293T and IMR32)) (UniProt O14744)", "experiment": "co-IP"}, "[4]": {"target": "PRMT5 (endogenous) (human (endogenous in HEK293T and IMR32)) (UniProt O14744)", "experiment": "co-IP", "remark": "listed apart in the source"}},
  "note": "Where two headings read alike, the source gives them in different places. These are yes or no findings as the source states them, for the method shown. For some of these results: In cells and extracts the contact can be indirect. Some results given as binding are weak or reduced against the parent protein; the word gives no strength. For some of these results: Tags and fused reporters may be left off the sequences shown.",
  "data": [
    {"molecule": "MBP-DIC1 (from UniProt O14576 1-645)", "values": [
      {"measurement": "binding", "setting": "GST-CSN6", "result": "no binding"},
      {"measurement": "binding", "setting": "GST-CSN5", "result": "no binding"}
    ]},
    {"molecule": "Myc-CSN1 (from UniProt Q13098 1-491)", "values": [
      {"measurement": "binding", "setting": "SFB-DIC1 WT", "result": "binds"}
    ]},
    {"molecule": "DIC1-HA (from UniProt O14576 1-645)", "values": [
      {"measurement": "binding", "setting": "SFB-Lis1 D317H", "result": "binds"},
      {"measurement": "binding", "setting": "SFB-CSN1", "result": "binds"},
      {"measurement": "binding", "setting": "SFB-Lis1 WT", "result": "binds"},
      {"measurement": "binding", "setting": "SFB-Lis1 S169P", "result": "binds"}
    ]},
    {"molecule": "BicD2 (endogenous) (from UniProt Q8TD16 1-824)", "values": [
      {"measurement": "binding", "setting": "SFB-DIC1 WT", "result": "binds"}
    ]},
    {"molecule": "LIC2 (endogenous) (from UniProt O43237 1-492)", "values": [
      {"measurement": "binding", "setting": "SFB-DIC1 WT", "result": "binds"}
    ]},
    {"molecule": "PRMT5 (endogenous) (from UniProt O14744 1-637) (enzyme)", "values": [
      {"measurement": "binding", "setting": "SFB-Lis1 WT", "result": "binds"},
      {"measurement": "binding", "setting": "SFB-Lis1 S169P", "result": "binds"}
    ]},
    {"molecule": "Myc-LIC2 (from UniProt O43237 1-492)", "values": [
      {"measurement": "binding", "setting": "SFB-DIC1 WT", "result": "binds"}
    ]},
    {"molecule": "CSN1 (endogenous) (from UniProt Q13098 1-491)", "values": [
      {"measurement": "binding", "setting": "[1]", "result": "binds"},
      {"measurement": "binding", "setting": "SFB-DIC1 WT", "result": "binds"}
    ]},
    {"molecule": "Myc-DIC1 (from UniProt O14576 1-645)", "values": [
      {"measurement": "binding", "setting": "SFB-LIC2", "result": "binds"}
    ]},
    {"molecule": "Myc-CSN4 (from UniProt Q9BT78 1-406)", "values": [
      {"measurement": "binding", "setting": "SFB-Lis1 WT", "result": "binds"}
    ]},
    {"molecule": "V5-BicD2 (from UniProt Q8TD16 1-824)", "values": [
      {"measurement": "binding", "setting": "SFB-DIC1 WT", "result": "binds"}
    ]},
    {"molecule": "B1", "values": [
      {"measurement": "binding", "setting": "GST-CSN2", "result": "binds"},
      {"measurement": "binding", "setting": "GST-CSN7A", "result": "binds"},
      {"measurement": "binding", "setting": "GST-CSN3", "result": "binds"},
      {"measurement": "binding", "setting": "[2]", "result": "binds"},
      {"measurement": "binding", "setting": "GST-CSN8", "result": "binds"},
      {"measurement": "binding", "setting": "GST-CSN4", "result": "binds"}
    ]},
    {"molecule": "B2", "values": [
      {"measurement": "binding", "setting": "[3]", "result": "binds"},
      {"measurement": "binding", "setting": "[4]", "result": "binds"}
    ]}
  ]
}
